# Assay results taken from paper PMC12670160, “A drug-repurposing screen of FDA- and EMA-approved drugs identifies two NF-κB inhibitors active against eumycetoma” (Journal of Antimicrobial Chemotherapy, 2025).
# Structures can show the parent of a compound that is named as a salt. Where two headings read alike, the source gives them in different places. The whole screen tested about 5,300 compounds, of which about 130 (2.5%) showed an effect of 50% or more. Some of the results follow.
# Tested on: M. mycetomatis strain mm55
# Conditions: 96 h, 2 µM
# [1] = primary screen, metabolic activity vs growth control, inhibitor
smiles,measurement,setting,value
"CC(=O)NCCCOc1ccc(C(=O)N2CCC(N3C(=O)CCc4ccccc43)CC2)cc1 [ONC0002419, fuscoside]",% viability,m. mycetomatis hyphae,92.96%
"CC(N)Cc1c[nH]c2ccc(OCc3cccs3)cc12 (centres unmarked) [ONC0001494, bw723c86]",% viability,m. mycetomatis hyphae,82.05%
"CCN[C@@H](C)Cc1cccc(C(F)(F)F)c1 [ONC0002357, dexfenfluramine]",% viability,m. mycetomatis hyphae,75.24%
"O[C@H]1[C@H]2[C@H](O)CCCN2C[C@H]1O [ONC0003483, swainsonine]",% viability,m. mycetomatis hyphae,72%
"Cc1ccccc1-n1c(CF)nc2ccc(N)cc2c1=O [ONC0003405, afloqualone]",% viability,m. mycetomatis hyphae,71.52%
"C/C=C/c1cc(OC)c(OC)cc1OC [ONC0003253, alphaasarone]",% viability,m. mycetomatis hyphae,106.6%
"C=CC[C@]1(O)CC[C@H]2[C@@H]3CCC4=CC(=O)CCC4=C3C=C[C@@]21C [ONC0004095, altrenogest]",% viability,[1],142.2%
"C[C@]12CC[C@@H](O)C[C@@H]1CC[C@@H]1[C@@H]2CC[C@]2(C)C(=O)CC[C@@H]12 [ONC0002295, androsterone]",% viability,m. mycetomatis hyphae,65.55%
"CC(C)(C)[C@]1(O)C[C@@H]2OC(=O)C[C@@]23C(=O)O[C@@H]2OC(=O)[C@H](O)C213 (some centres unmarked) [ONC0004934, bilobalide]",% viability,m. mycetomatis hyphae,85.1%
"CC(=O)O[C@H]1CC[C@@]2(C)C(=CC(=O)[C@@H]3[C@@H]2CC[C@]2(C)C(=O)CC[C@@H]32)C1 [ONC0002730, 7oxodehydroepiandrosterone acetate]",% viability,m. mycetomatis hyphae,95.04%
"COc1ccc2c(c1)[C@]13CCCC[C@@H]1[C@H](C2)N(C)CC3 [ONC0000542, dextromethorphan hydrobromide]",% viability,m. mycetomatis hyphae,103%
"CN1CCCC1CCSc1ccc(O)cc1 (centres unmarked) [ONC0000801, sib1553a]",% viability,m. mycetomatis hyphae,88.75%
"CC(=O)N(C)c1cccc(-c2ccnc3c(C(=O)c4cccs4)cnn23)c1 [ONC0000812, indiplon]",% viability,m. mycetomatis hyphae,81.71%
"NC(=O)[C@@H](CC1CC1)[C@@H](CCC(F)(F)F)C(=O)N[C@H]1N=C(c2ccccc2)c2cccc(F)c2NC1=O [ONC0002103, bms983970]",% viability,m. mycetomatis hyphae,61.26%
"CCN(CC)C(=O)N[C@H]1C=C2c3cccc4[nH]cc(c34)C[C@H]2N(C)C1 [ONC0003438, lisuride maleate]",% viability,m. mycetomatis hyphae,78.2%
"C#C[C@]1(O)CC[C@H]2[C@@H]3CCC4=CC(=O)CC[C@]4(C)[C@H]3CC[C@@]21C [ONC0003155, ethisterone]",% viability,[1],83.31%
"CC(C)CC(N(C)C)C1(c2ccc(Cl)cc2)CCC1 (centres unmarked) [ONC0005560, sibutramine hydrochloride]",% viability,m. mycetomatis hyphae,80.99%
"C=CCN1CC[C@]23c4c5ccc(O)c4O[C@H]2/C(=N/NC(=O)c2ccccc2)CC[C@@]3(O)[C@H]1C5 [ONC0001752, naloxonebenzoylhydrazone]",% viability,m. mycetomatis hyphae,85.15%
"C[C@]12CC[C@H]3[C@@H](CCC4=CC(=O)CC[C@@H]43)[C@@H]1CC[C@@H]2O [ONC0001357, nandrolone]",% viability,m. mycetomatis hyphae,96.54%
"CNC(=NS(=O)(=O)c1ccc(Cl)cc1)N1CC(c2ccccc2)C(c2ccc(Cl)cc2)=N1 (centres unmarked) [ONC0004486, slv319]",% viability,m. mycetomatis hyphae,118.9%
"c1ccc(CCCCN2CCC(c3ccccc3)CC2)cc1 [ONC0002517, 4ppbp]",% viability,m. mycetomatis hyphae,93.65%
"Cc1cc(O)ccc1Cl [ONC0000761, chlorocresol]",% viability,m. mycetomatis hyphae,76.1%
"NCC(CC(=O)O)c1ccccc1 (centres unmarked) [ONC0002637, fenigam]",% viability,m. mycetomatis hyphae,81.04%
"C=C(C)[C@H]1CN[C@H](C(=O)O)[C@H]1CC(=O)O [ONC0002703, kainicacid]",% viability,m. mycetomatis hyphae,80.33%
"Cc1ccc(-c2nc3ccc(C)cn3c2CC(=O)N(C)C)cc1 [ONC0004167, zolpidem]",% viability,m. mycetomatis hyphae,128.7%
"CN[C@@H]1C[C@@H](c2ccc(Cl)c(Cl)c2)c2ccccc21 [ONC0001498, indatraline]",% viability,m. mycetomatis hyphae,77.66%
"O=C(O)Cc1cccnc1C(=O)O [ONC0001551, homoquinolinicacid]",% viability,m. mycetomatis hyphae,85.08%
"Clc1ccc(C2=CCCC3CCC2N3)cn1 (centres unmarked) [ONC0001576, ub165]",% viability,m. mycetomatis hyphae,86.54%
"C[C@H](N)[C@H](O)c1ccc(O)c(O)c1 [ONC0000522, levonordefrin]",% viability,m. mycetomatis hyphae,66.11%
"CO[C@H]1[C@H](O)[C@H](O[C@H]2CC[C@@]3(C=O)[C@H](CC[C@@H]4[C@@H]3CC[C@]3(C)[C@@H](C5=CC(=O)OC5)CC[C@]43O)C2)O[C@@H](C)[C@@H]1O [ONC0005585, peruvoside]",% viability,[1],87.82%
"COP(=O)(OC)OC(c1ccc(Cl)cc1)P(=O)(OC)OC (centres unmarked) [ONC0000002, mifobate]",% viability,m. mycetomatis hyphae,121.8%
"CCCC(C)C1(CC)C(=O)NC(=O)NC1=O (centres unmarked) [ONC0002314, pentobarbital]",% viability,m. mycetomatis hyphae,69.82%
"COC(=O)CC[C@@H]1N=C(c2ccccn2)c2cc(Br)ccc2-n2c(C)cnc21 [ONC0001123, remimazolam benzenesulfonate]",% viability,m. mycetomatis hyphae,82.85%
"O=c1n(Cl)c(=O)n(Cl)c(=O)n1Cl [ONC0005303, symclosene]",% viability,m. mycetomatis hyphae,72.34%
"O=C(NCC1CCOCC1)c1cnc(Nc2ccc(Cl)cc2Cl)nc1C(F)(F)F [ONC0005058, gw842166x]",% viability,m. mycetomatis hyphae,79.97%
"CC1=C(O)C(=O)[C@@H]2O[C@@H]2C1=O [ONC0001685, terreicacid]",% viability,m. mycetomatis hyphae,61.38%
"Cc1nn(C)c2c1C(c1cccc(Cl)c1)=NCCN2 [ONC0002188, zometapine]",% viability,m. mycetomatis hyphae,94.55%
"CN[C@@H](C)[C@H](O)c1ccccc1 [ONC0000749, ephedrine 1r2s hydrochloride]",% viability,m. mycetomatis hyphae,84.07%
"CSCC[C@H](NC(=O)[C@H](Cc1ccccc1)NC(=O)CNC(=O)CNC(=O)[C@@H](N)Cc1ccc(O)cc1)C(=O)O [ONC0003650, metenkephalin]",% viability,m. mycetomatis hyphae,106%
"NC1CCN(c2cccnc2)C1 (centres unmarked) [ONC0003588, abt202]",% viability,m. mycetomatis hyphae,151.6%
"CN1CCCCC1Cn1cc(C(=O)c2cc([N+](=O)[O-])ccc2I)c2ccccc21 (centres unmarked) [ONC0004629, am1241]",% viability,m. mycetomatis hyphae,73.52%

# In a second layout: three of the compounds above.
smiles | measurement | setting | value
C=CCN1CC[C@]23c4c5ccc(O)c4O[C@H]2/C(=N/NC(=O)c2ccccc2)CC[C@@]3(O)[C@H]1C5 [ONC0001752, naloxonebenzoylhydrazone] | % viability | m. mycetomatis hyphae | 85.15%
O=c1n(Cl)c(=O)n(Cl)c(=O)n1Cl [ONC0005303, symclosene] | % viability | m. mycetomatis hyphae | 72.34%
CN[C@@H](C)[C@H](O)c1ccccc1 [ONC0000749, ephedrine 1r2s hydrochloride] | % viability | m. mycetomatis hyphae | 84.07%
